PubChem BioAssay AID686938 – Drosophila RNAi Screening Center, 2013

Screen: 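Looking for CRAC channel components and the factors controlling them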 (primary screen)
System: Drosophila S2R+ cells
Reagent: long dsRNA against Drosophila genes, about 0.25 µg dsRNA per well, roughly 10,000 cells
Time to read-out: 5 days of knock-down before the calcium assay
Challenge: thapsigargin (SERCA pump blocker) to empty calcium stores; entry signal taken 4 min after adding it
Measurement: 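Duplicate raw fluo-4 intensities per well from a plate reader, at rest and four minutes after thapsigargin emptied calcium stores; entry-to-rest ratio filled for only some wells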
Direction: calcium entry signal: higher = stronger calcium signal after store depletion; resting calcium signal: higher = higher resting calcium signal
Rule for the call: 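Called when the plate z-score of the entry-to-rest ratio, mean of duplicates, falls below −3; wells with low overall dye signal (Fmax z below −2) or more than five off-targets excluded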
Calls: active = strongly reduced calcium entry; inactive = no strong reduction
The screen tested about 23,000 reagents; shown is an unselected part of those that have a named target and a result. Over the whole deposit, 75 (0.33%) are marked active. 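Raw plate signals without normalisation; calls rest on plate z-scores that were not deposited; ratio present for only 364 wells.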 No sequences are given here. Not given: the dose of the treatment.

target gene | dsRNA | calcium entry signal, replicate 1 (fluorescence units) | calcium entry signal, replicate 2 (fluorescence units) | resting calcium signal, replicate 1 (fluorescence units) | resting calcium signal, replicate 2 (fluorescence units) | Call
CG42390 | DRSC15866 | 3.18e7 | 3.32e7 | 1.62e7 | 1.57e7 | inactive
CG42390 | DRSC23064 | 3.01e7 | 4.45e7 | 1.50e7 | 1.91e7 | inactive
CG42390 | DRSC23065 | 7.72e7 | 3.46e7 | 3.05e7 | 1.30e7 | inactive
Cpr92F | DRSC15819 | 3.79e7 | 4.77e7 | 4.65e7 | 2.04e7 | inactive
amos | DRSC03484 | 3.22e7 | 4.34e7 | 1.58e7 | 1.69e7 | inactive
rudhira | DRSC19821 | 2.40e7 | 2.84e7 | 1.38e7 | 1.45e7 | inactive
rudhira | DRSC22111 | 3.97e7 | 5.43e7 | 1.91e7 | 2.83e7 | inactive
rudhira | DRSC23144 | 3.11e7 | 4.45e7 | 1.68e7 | 1.92e7 | inactive
P5CS | DRSC11831 | 3.69e7 | 4.93e7 | 1.76e7 | 3.09e7 | inactive
P5CS | DRSC11832 | 2.90e7 | 5.47e7 | 1.48e7 | 2.26e7 | inactive
osk | DRSC17023 | 3.31e7 | 3.13e7 | 1.40e7 | 1.50e7 | inactive
CG2924 | DRSC18525 | 3.93e7 | 4.36e7 | 1.76e7 | 1.91e7 | inactive
CG2991 | DRSC00559 | 3.62e7 | – | 2.12e7 | – | inactive
Spn27A | DRSC03608 | 2.93e7 | 2.79e7 | 1.41e7 | 1.44e7 | inactive
mira | DRSC16998 | 4.05e7 | 2.72e7 | 1.88e7 | 1.33e7 | inactive
MED7 | DRSC16059 | 2.27e7 | 2.43e7 | 1.35e7 | 1.40e7 | inactive
Polr3B | DRSC07536 | 2.78e7 | 2.53e7 | 1.21e7 | 1.21e7 | inactive
CG4983 | DRSC02799 | 4.67e7 | – | 2.15e7 | – | inactive
CG42712 (retired record) | DRSC01038 | 3.60e7 | 4.97e7 | 1.80e7 | 2.17e7 | inactive
Bacc | DRSC00735 | 3.70e7 | 4.86e7 | 1.87e7 | 1.92e7 | inactive
ACXD | DRSC07843 | 3.29e7 | 4.86e7 | 1.83e7 | 2.15e7 | inactive
Spase25 | DRSC19776 | 2.93e7 | 3.21e7 | 1.43e7 | 1.37e7 | inactive
Tim8 | DRSC20291 | 2.94e7 | 4.63e7 | 1.49e7 | 2.13e7 | inactive
dgt6 | DRSC14424 | 3.03e7 | 3.22e7 | 1.45e7 | 1.81e7 | inactive
